Taken from: PubChem BioAssay AID1259424 (University of Nebraska Medical Center, 2018)
Screen: 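Seek colon cancer survival genes behaving like KSR1, using a six-gene signature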 (primary screen). Cell system: human HCT116 colon cancer cells. Reagent: siRNA pool against human genes, 50 nM. Measured: 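Log2 levels of six mRNAs (branched-DNA multiplex), adjusted by two reference genes and the non-targeting median, then scored against the average KSR1 knockdown pattern as Pearson r and euclidean distance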. Reading the numbers: mean correlation with KSR1 profile: higher = expression change more like KSR1 knockdown; mean distance from KSR1 profile: higher = expression change less like KSR1 knockdown.
Here is a random part of about 14,000 reagents tested. 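Higher correlation or smaller distance means closer resemblance to KSR1 loss; control wells, including KSR1 knockdowns, recur on many plates.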 Not all columns of the deposit are shown. Not stated in the record: the time to read-out.

After knock-down of PROS1 (GeneID 5627) the results were mean correlation with KSR1 profile -0.0148; mean distance from KSR1 profile 1.75.
ELAVL4 (GeneID 1996) gave mean correlation with KSR1 profile -0.538; mean distance from KSR1 profile 3.51.
Against PCDH10 (GeneID 57575), the entry reads mean correlation with KSR1 profile 0.129; mean distance from KSR1 profile 2.25.
With knock-down of ACR (GeneID 49), the screen gave mean correlation with KSR1 profile -0.345; mean distance from KSR1 profile 3.
With knock-down of ATP6AP1 (GeneID 537) the results were mean correlation with KSR1 profile 0.306; mean distance from KSR1 profile 3.97.
Silencing of TREX1 (GeneID 11277) gave: mean correlation with KSR1 profile 0.316; mean distance from KSR1 profile 2.2.
ZNF281 (GeneID 23528) gave mean correlation with KSR1 profile -0.33; mean distance from KSR1 profile 2.29.
After knock-down of CEL (GeneID 1056) the results were mean correlation with KSR1 profile -0.657; mean distance from KSR1 profile 2.49.
For ATP11A (GeneID 23250), the values are mean correlation with KSR1 profile -0.499; mean distance from KSR1 profile 2.66.
Against GRTP1 (GeneID 79774), the values are mean correlation with KSR1 profile 0.415; mean distance from KSR1 profile 1.91.
Silencing of NECTIN1 (GeneID 5818) gave: mean correlation with KSR1 profile 0.0699; mean distance from KSR1 profile 1.89.
Against VWA1 (GeneID 64856), the values are mean correlation with KSR1 profile -0.0875; mean distance from KSR1 profile 4.22.
With knock-down of GABRG1 (GeneID 2565), the screen gave mean correlation with KSR1 profile 0.662; mean distance from KSR1 profile 0.855.
PGF (GeneID 5228) scored mean correlation with KSR1 profile -0.38; mean distance from KSR1 profile 2.02.
For ACTRT1 (GeneID 139741) the deposit lists mean correlation with KSR1 profile -0.162; mean distance from KSR1 profile 2.57.
Against SOD3 (GeneID 6649), the entry reads mean correlation with KSR1 profile -0.0226; mean distance from KSR1 profile 1.22.
Against GPATCH2L (GeneID 55668), the entry reads mean correlation with KSR1 profile -0.118; mean distance from KSR1 profile 2.18.
For KYNU (GeneID 8942), the values are mean correlation with KSR1 profile 0.0185; mean distance from KSR1 profile 1.16.
Against COXFA4L2 (GeneID 56901), the values are mean correlation with KSR1 profile -0.0107; mean distance from KSR1 profile 1.98.
For OAZ2 (GeneID 4947), the entry reads mean correlation with KSR1 profile -0.348; mean distance from KSR1 profile 2.25.
Silencing of VEZF1 (GeneID 7716) came out at: mean correlation with KSR1 profile -0.567; mean distance from KSR1 profile 2.47.
ACVR1 (GeneID 90) gave mean correlation with KSR1 profile -0.214; mean distance from KSR1 profile 2.9.
Silencing of ATP1A3 (GeneID 478) resulted in: mean correlation with KSR1 profile 0.445; mean distance from KSR1 profile 1.15.
FCF1 (GeneID 51077) showed mean correlation with KSR1 profile 0.666; mean distance from KSR1 profile 1.56.
Depletion of RACK1 (GeneID 10399) resulted in: mean correlation with KSR1 profile -0.0448; mean distance from KSR1 profile 1.64.
P2RX6 (GeneID 9127) gave mean correlation with KSR1 profile -0.447; mean distance from KSR1 profile 2.67.
After knock-down of CD46 (GeneID 4179) the results were mean correlation with KSR1 profile -0.275; mean distance from KSR1 profile 1.56.
GNGT1 (GeneID 2792) showed mean correlation with KSR1 profile -0.0321; mean distance from KSR1 profile 3.31.

Copied from the entries so far for reference:
VEZF1 (GeneID 7716) — mean correlation with KSR1 profile: -0.567; mean distance from KSR1 profile: 2.47
ACVR1 (GeneID 90) — mean correlation with KSR1 profile: -0.214; mean distance from KSR1 profile: 2.9
